From the supplement of paper PMC6289059
Where “and” joins values, the source holds several entries; their conditions need not be identical. Identical values can stand only once. Some of the results follow. Single values are uncertain, as repeats are few or missing.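 The cells are hepatocyte-like cells grown from human stem cells in which the DGUOK gene was disrupted by CRISPR, a model of liver mtDNA depletion syndrome. Each well's ATP signal was scored against the other wells on its plate, and a drug counted as a primary hit when its score was 3 or higher.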

These molecules were tested on DGUOK Δ14/Δ5 iPSC-derived hepatocyte-like cells (SV20) (assay: ATP level (CellTiter-Glo luminescence) Z score relative to plate distribution, under 2-DG glycolysis block; higher = more cellular ATP (rescue of mitochondrial ATP production)). Conditions: 5 µM; treatment time: day 15 to day 20 of differentiation (5 days); 2-deoxy-D-glucose: 20 mM for 24 h before assay.
Oc1noc2c1CCNC2 was tested, and the ATP level was inactive: -0.518.
For COc1cc([C@@H]2c3cc4c(cc3[C@H](O)[C@H]3COC(=O)[C@@H]23)OCO4)cc(OC)c1OC, the ATP level was inactive: 1.11.
In the case of CCCC(C)C1(CC)C(=O)NC(=S)NC1=O (stereo not given), the ATP level is reported as inactive: 2.28.
O=C1C=C2C=C[C@@H]3C[C@@]2(O1)[C@H]1CCCCN31 was tested, and the ATP level was inactive: 0.329.
For CC(C)=CC1C(C(=O)OCc2cccc(Oc3ccccc3)c2)C1(C)C (stereo not given), the ATP level was inactive: 2.77.
NC(=O)C[S@@+]([O-])C(c1ccccc1)c1ccccc1 was tested, and the ATP level was inactive: 0.23.
C[CH2][Hg][S]c1ccccc1C(=O)[O-].[Na+] was tested, and the ATP level was inactive: -15.1.
CC1(C)C(=O)C=C[C@]2(C)[C@H]3CC[C@@]4(C)[C@H](c5ccoc5)OC(=O)[C@H]5O[C@]54[C@]3(C)[C@H](O)C[C@@H]12 was tested, and the ATP level was inactive: -1.4.
CC[C@H](C)[C@H]1O[C@]2(C=C[C@@H]1C)C[C@@H]1C[C@@H](C/C=C(\C)[C@@H](O[C@H]3C[C@H](OC)[C@@H](O[C@H]4C[C@H](OC)[C@@H](O)[C@H](C)O4)[C@H](C)O3)[C@@H](C)/C=C/C=C3\CO[C@@H]4[C@H](O)C(C)=C[C@@H](C(=O)O1)[C@]34O)O2.CO[C@H]1C[C@H](O[C@H]2[C@H](C)O[C@@H](O[C@@H]3/C(C)=C/C[C@@H]4C[C@@H](C[C@]5(C=C[C@H](C)[C@@H](C(C)C)O5)O4)OC(=O)[C@@H]4C=C(C)[C@@H](O)[C@H]5OC/C(=C\C=C\[C@@H]3C)[C@]54O)C[C@@H]2OC)O[C@@H](C)[C@@H]1O [ABAMECTIN (avermectin B1a shown)] was tested, and the ATP level was inactive: -13.9.
COc1cc([C@@H]2c3cc4c(cc3[C@H](OC(C)=O)[C@H]3COC(=O)[C@H]23)OCO4)cc(OC)c1OC was tested, and the ATP level was inactive: -1.34.
In the case of Nc1ccncc1, the ATP level is reported as inactive: -0.339.
In the case of CN(C)Cc1c[nH]c2ccccc12, the ATP level is reported as inactive: -0.375.
COC(=O)[C@@H]1C[C@H](OC(C)=O)C(=O)[C@H]2[C@@]1(C)CC[C@H]1C(=O)O[C@H](c3ccoc3)C[C@]21C was tested, and the ATP level was inactive: 1.8.
With CC[C@@H](C(N)=O)N1CCCC1=O the ATP level was inactive: 0.599.
For O=C(O)CCCc1ccc(N(CCCl)CCCl)cc1, the ATP level was inactive: 0.619.
In the case of CC[C@@]1(O)C[C@H](O)c2c(cc3c(c2O)C(=O)c2c(O)ccc(O)c2C3=O)[C@H]1C(=O)OC, the ATP level is reported as inactive: -0.192.
O=C(O[C@H]1C[C@H]2CC[C@@H](C1)[N+]21CCCC1)C(O)(c1ccccc1)c1ccccc1 was tested, and the ATP level was inactive: 1.47.
For COc1ccc(C(=O)N2CCCC2=O)cc1, the ATP level was active: 5.54.
N.N.[Cl][Pt][Cl] was tested, and the ATP level was inactive: -14.9.
CCCN1C[C@H](CSC)C[C@@H]2c3cccc4[nH]cc(c34)C[C@H]21 was tested, and the ATP level was inactive: -0.695.
CC1=C(O)C(=O)C=C2C1=CC=C1[C@@]2(C)CC[C@@]2(C)[C@@H]3C[C@](C)(C(=O)O)CC[C@]3(C)CC[C@]12C was tested, and the ATP level was inactive: -6.24.
For N#C/C(=C\c1ccc(O)cc1)C(=O)O [alpha-CYANO-4-HYDROXYCINNAMIC ACID], the ATP level was inactive: 0.532.
With CC(=O)Oc1ccc(/C=C/c2cc(OC(C)=O)cc(OC(C)=O)c2)cc1 the ATP level was inactive: -0.68.
With Oc1cccc2cccnc12 the ATP level was inactive: 1.32.
For CC(C)(O)C(Cl)(Cl)Cl, the ATP level was inactive: -0.353.
COC(=O)[C@]1(C)CC[C@]2(C)CC[C@]3(C)C4=CC=C5C(=CC(=O)C(O)=C5C)[C@]4(C)CC[C@@]3(C)[C@@H]2C1 was tested, and the ATP level was inactive: 2.01.
For Cc1ncc(CNC(=O)N(CCCl)N=O)c(N)n1, the ATP level was inactive: 2.69.
With CN1CCCCC1c1ccc(-c2cccnc2)nc1 (stereo not given) the ATP level was inactive: -2.43.
In the case of CCCCCCCCCc1ccc(O)cc1, the ATP level is reported as inactive: -1.48.
With COc1ccc2[nH]cc(CCN)c2c1 the ATP level was inactive: 0.81.
For CNc1ccc(C(=O)CC(O)CCC(C)C2OC(=O)CC(O)CC(=O)CC(O)CC(O)CC(O)CC(O)CC3(O)CC(O)C(C(=O)OC)C(CC(O[C@@H]4O[C@H](C)[C@@H](O)[C@H](N)[C@@H]4O)/C=C/C=C/C=C/C=C/C=C/C=C/C=C/C2C)O3)cc1.COC(=O)C1C(O)CC2(O)CC(O)CC(O)CC(O)CC(O)CC(=O)CC(O)CC(=O)OC(C(C)CCC(O)CC(=O)c3ccc(N)cc3)C(C)/C=C/C=C/C=C/C=C/C=C/C=C/C=C/C(O[C@@H]3O[C@H](C)[C@@H](O)[C@H](N)[C@@H]3O)CC1O2 (stereo not given in full), the ATP level was inactive: -0.567.
For CN(C)[C@@H]1C(=O)C(C(N)=O)=C(O)[C@@]2(O)C(=O)C3=C(O)c4c(O)ccc(Cl)c4[C@@](C)(O)[C@H]3C[C@@H]12, the ATP level was inactive: -2.84.
CC[C@@]1(O)C(=O)OCc2c1cc1n(c2=O)Cc2cc3ccccc3nc2-1 was tested, and the ATP level was inactive: -7.85.
In the case of N#Cc1nn(-c2c(Cl)cc(C(F)(F)F)cc2Cl)c(N)c1[S+]([O-])C(F)(F)F (stereo not given), the ATP level is reported as inactive: 0.0825.
With O=C1C[C@@H]2OCC=C3CN4CC[C@]56c7ccccc7N1[C@H]5[C@H]2[C@H]3C[C@H]46 the ATP level was inactive: 0.0652.
CC(C)=CCC[C@]1(C)C=Cc2c(O)c3c(c(CC=C(C)C)c2O1)O[C@]12C(=C[C@@H]4C[C@H]1C(C)(C)O[C@@]2(C/C=C(/C)C(=O)O)C4=O)C3=O was tested, and the ATP level was inactive: -10.2.
For NCCc1cc(O)c(O)cc1O, the ATP level was inactive: 1.76.
With C=C(C)c1cc2cc(C(C)=O)c(O)cc2o1 the ATP level was inactive: -5.65.
With c1ccc2nc(N3CCNCC3)ccc2c1 the ATP level was inactive: 2.24.
For C[N+](C)(C)CCCCCCCCCC[N+](C)(C)C, the ATP level was inactive: -11.6.
For C[N+]1(C)[C@@H]2CC[C@H]1C[C@@H](OC(=O)C(CO)c1ccccc1)C2 (stereo not given in full), the ATP level was inactive: 0.656.
With CN1C[C@H](C(=O)N[C@]2(C)O[C@@]3(O)[C@@H]4CCCN4C(=O)[C@H](Cc4ccccc4)N3C2=O)C[C@@H]2c3cccc4[nH]cc(c34)C[C@H]21 the ATP level was inactive: -1.49.
CC(=O)OC1CN2CCC1CC2 (stereo not given) was tested, and the ATP level was inactive: 0.601.
In the case of CC(CCc1ccccc1)NC(C)C(O)c1ccc(O)cc1 (stereo not given), the ATP level is reported as inactive: -1.11.
For COc1cccc(C2(O)CCCCC2CN(C)C)c1 (stereo not given), the ATP level was inactive: 0.885.
With CC(C)N(CCC(C(N)=O)(c1ccccc1)c1ccccn1)C(C)C (stereo not given) the ATP level was inactive: 1.44.
With CC[C@@]1(O)C[C@H](O[C@H]2C[C@H](N(C)C)[C@H](O)[C@H](C)O2)c2c(cc3c(c2O)C(=O)c2c(O)cccc2C3=O)[C@H]1C(=O)OC the ATP level was inactive: -11.9.
In the case of N=C(N)NN, the ATP level is reported as inactive: 1.45 and inactive: 1.5.
C[C@H](N)[C@H](O)c1ccc(O)c(O)c1 was tested, and the ATP level was inactive: 0.465.
In the case of O=[N+]([O-])O[C@@H]1CO[C@H]2[C@@H]1OC[C@@H]2O, the ATP level is reported as inactive: -8.62.
For N[C@@H](Cc1ccc(N(CCCl)CCCl)cc1)C(=O)O, the ATP level was inactive: 1.82.
With NC(=O)c1ccc(N)nc1 the ATP level was active: 3.15.
CC1=CC(=O)c2c(O)cccc2C1=O was tested, and the ATP level was inactive: -18.3.
O=C1CN=C(c2ccccc2Cl)c2cc([N+](=O)[O-])ccc2N1 was tested, and the ATP level was inactive: -1.1.
With C[C@H]1O[C@H](O[C@H]2[C@H](O)[C@@H](O)[C@@H](O)[C@H](O)[C@@H]2O)[C@@H](N)C[C@@H]1NC(=N)C(=O)O the ATP level was inactive: -0.815.
In the case of Nc1nc(N)nc(NC2CC2)n1, the ATP level is reported as inactive: 0.542.
Cc1ccc(-c2nc3ccc(C)cn3c2CC(=O)N(C)C)cc1 was tested, and the ATP level was inactive: -1.25.
CN1[C@@H]2CC[C@H]1C[C@@H](OC(=O)[C@H](CO)c1ccccc1)C2 was tested, and the ATP level was inactive: -0.237.
In the case of CC(=O)O[C@H]1C[C@@H](OC(C)=O)C(C)(C)C2C[C@@H](OC(C)=O)[C@]3(C)C(CC[C@@]4(C)[C@H](c5ccoc5)C(=O)[C@H]5O[C@]543)[C@]21C (stereo not given in full), the ATP level is reported as inactive: 1.59.
For C=C(C)[C@H]1CN[C@H](C(=O)O)[C@H]1CC(=O)O, the ATP level was inactive: -2.3.
In the case of C[C@@H]1CC[C@@]2(OC1)O[C@H]1[C@@H](O)[C@H]3[C@@H]4CC[C@H]5C[C@@H](O[C@@H]6O[C@H](CO)[C@H](O[C@@H]7O[C@H](CO)[C@@H](O)[C@H](O[C@@H]8OC[C@@H](O)[C@H](O)[C@H]8O)[C@H]7O[C@@H]7O[C@H](CO)[C@H](O)[C@H](O[C@@H]8O[C@H](CO)[C@@H](O)[C@H](O)[C@H]8O)[C@H]7O)[C@H](O)[C@H]6O)[C@H](O)C[C@]5(C)[C@H]4CC[C@]3(C)[C@H]1[C@@H]2C, the ATP level is reported as inactive: 0.81.
Cc1cc(O)ccc1Cl was tested, and the ATP level was inactive: -0.148.
In the case of CC(C)[C@@H]1NC(=O)[C@H](C)OC(=O)[C@@H](C(C)C)NC(=O)[C@@H](C(C)C)OC(=O)[C@H](C(C)C)NC(=O)[C@H](C)OC(=O)[C@@H](C(C)C)NC(=O)[C@@H](C(C)C)OC(=O)[C@H](C(C)C)NC(=O)[C@H](C)OC(=O)[C@@H](C(C)C)NC(=O)[C@@H](C(C)C)OC1=O, the ATP level is reported as inactive: -15.7.
In the case of C=C[C@H]1CN2CC[C@H]1C[C@H]2[C@H](OC(=O)OCC)c1ccnc2ccc(OC)cc12, the ATP level is reported as inactive: 1.59.
In the case of CC(=O)Oc1c2c(c(CC=C(C)C)c3c1C(=O)C1=C[C@@H]4CC5C(C)(C)OC(C/C=C(\C)C(=O)O)(C4=O)[C@@]15O3)OC(C)(CCC=C(C)C)C=C2 (stereo not given in full), the ATP level is reported as inactive: -9.72.
In the case of COc1ccc(CN2CCNCC2)c(OC)c1OC, the ATP level is reported as inactive: 0.307.
Nc1ncn[nH]1 was tested, and the ATP level was inactive: 1.01.
For CC(C)=CCCC1(C)C=Cc2c(O)c3c(c(CC=C(C)C)c2O1)OC12C(CC4CC1C(C)(C)OC2(C/C=C(/C)C(=O)O)C4O)C3=O (stereo not given), the ATP level was inactive: -0.0584.
In the case of CC[C@H]1CN2CC[C@H]1C[C@@H]2[C@@H](O)c1ccnc2ccc(OC)cc12, the ATP level is reported as inactive: -0.471.
CC(Cl)(Cl)C(=O)O was tested, and the ATP level was inactive: 0.429.
